# Screening data, single-dose tests

Results are given as percent effect. The record does not define 0% and 100%; most values in the screen are far below 50% and negative numbers occur (in some assays of this library far below -100). This is an unselected part of the compounds tested.

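Growth of Mycobacterium tuberculosis over 4 days (cholesterol / DPPC medium with tyloxapol); the read-out is not stated. Compounds at 500 µM. Direction is inferred from retests: higher values go with more growth inhibition. Of about 18,000 compounds tested this way, about 900 (5%) reached 50% or more in at least one test.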

SMILES	percent effect
CN(Cc1cccnc1)C(=O)CN	0.6199
Cc1ccc(C(=O)NCC(=O)NC(C)(C)C)c(O)c1	9.048
CS(=O)(=O)N1CCCN(C(=O)c2cccc(Cl)c2)CC1	4.375
O=C(CC1(O)CCCCC1)NCC(O)c1ccsc1 (stereo not drawn)	22.48
CNC(=O)c1cnn(-c2ccccc2)c1C1CC1	-4.057
CCN(CC)CCCN1CCOC2(CCOC2)C1 (stereo not drawn)	-7.479
CN1[C@H]2CC[C@@H]1CN(CC(=O)Nc1ccn(C)n1)CC2	-12.57
c1ncn(CCN2CCNCC2)n1	-6.875
[H][C@]12CNC[C@]([H])(CN(S(=O)(=O)c3cccc(F)c3)C1)O2	-9.026
COc1cc(C#N)ccc1S(=O)(=O)N1CCCC1CN (stereo not drawn)	9.779
COc1ccc(NC(=O)CCN2CCCSCC2)cc1	13.84
CCOC(=O)COc1ccc(C(N)=O)cc1	-21.61
CCc1nccn1CCNC(=O)CN1CCCC(O)C1 (stereo not drawn)	-0.9801
COc1cccc(C(C)N2CCCN(C(N)=O)CC2)c1 (stereo not drawn)	-3.698
NC(=O)[C@H](Cc1ccccc1)NC(=O)c1cnn[nH]1	-13.7
CC(=O)N1CCC(C(=O)Nc2ccc(C)c(C)c2)CC1	40.42
CN1C[C@@H]2CN(Cc3ccc(N(C)C)nc3)C[C@@H]2C1	7.657
O=S(=O)(c1ccco1)N1CCSC2(CCOCC2)C1	31.86
Cc1cc(C2CCCCN2)no1 (stereo not drawn)	-2.493
N[C@@H]1CC[C@@H](NS(=O)(=O)N2CCc3ccccc3C2)C1	8.359
Cc1nc(CN2CC3(CCNCC3)OC2=O)co1	0.2018
OCC(O)CNc1ccnc2ccc(Br)cc12 (stereo not drawn)	-40.17
Nc1c[nH]nc1-c1ccccn1	22.54
N#Cc1cccc(C(=O)NCCCN2CCCC2)c1	9.79
CC(C)C(N)c1ncc[nH]1 (stereo not drawn)	10.86
CCOc1ccnc(NCCc2nncn2CC)n1	5.611
O=C(Cc1cccs1)NCC1(O)CCCNC1 (stereo not drawn)	-3.867
CN(C)C(CNC(=O)Nc1cn[nH]c1)c1ccsc1 (stereo not drawn)	19.52
CC(C)COC(C)C(=O)NCc1nnc2ccccn12 (stereo not drawn)	-16.36
CNC(=O)c1sccc1S(=O)(=O)N1CCCC1	-0.5063
CNc1snc(C)c1C(=O)Nc1ncccc1O	-16.57
CC(CCn1cccn1)NCC1(O)CCOCC1 (stereo not drawn)	-13.67
NC(=O)c1ccc(C(=O)NCCC(O)C(F)(F)F)cn1 (stereo not drawn)	4.504
O=C(NCc1ccncc1)OCC(F)(F)F	33.86
CC(C)(C)SCC(=O)NCC(C)(C)N1CC[S+]([O-])CC1	-2.796
Cc1cc(NC(=O)CSCC(=O)N2CCC2)no1	-9.343
CO[C@H]1CNCC1NC(=O)C1CC=CC1 (stereo partly drawn)	-7.622
Cc1cn(CCNC(=O)CN2CCCCCC2=O)nn1	-13.3
Cc1nccc(N)c1Br	18.86
CCOc1ccc(C(=O)NC(CC)(CO)CO)cc1	-3.907
CCc1noc(CSc2nc(C)cc(N)n2)n1	12.96
Cn1nccc1C(=O)Nc1n[nH]c(C2CCC2)n1	-8.333
CC1(C)C[S+]([O-])CCN1C(=O)c1cccc(F)c1Cl (stereo not drawn)	-10.36
CC(C)n1cc(C(=O)N2C[C@@H]3CCCN[C@@H]3C2)cn1	-9.326
CS(=O)(=O)c1cccc(CN)c1	0.6454
CCCc1nnc(NCc2ccc(C)cn2)o1	44.43
CC(N)C(=O)N(CCN(C)C)Cc1ccccc1F (stereo not drawn)	13.56
Cc1c(NC(=O)c2cnccn2)cccc1C(N)=O	4.806
CC(C)(C#N)NC(=O)OC(C)(C)C	-0.5539
NC(=O)Cc1cccc(O)c1	7.474
Cc1cc(C(=O)NCc2ccnc(N(C)C)c2)no1	2.009
CCC(C)NC(=O)NCc1ccc(-n2ccnc2)nc1 (stereo not drawn)	12.25
CC(O)CN1CCN(C(=O)c2cc(Br)c[nH]2)CC1 (stereo not drawn)	18.96
Cc1cc(C)nc(NC(=O)NCC(=O)N(C)C)c1	-12.57
CC(C)N1CCC(CN2CCN(c3nc[nH]n3)CC2)C1 (stereo not drawn)	-8.703
O=C(NC1CC1)c1cc(-c2cccs2)on1	28.69
Cc1c(Br)cccc1S(=O)(=O)NCCN	34.8
O=S(=O)(CC1CCCCC1)N[C@H]1CCCNC1	-5.803
COCCc1noc(C2CNC2)n1	92.28
CCc1ccc(N(C(C)C(=O)NC)S(C)(=O)=O)cc1 (stereo not drawn)	6.703
Cn1cncc1CCNC(=O)c1cc(Cl)cn1C	6.431
CC(=O)NCCNC(=O)CSCc1cccc(Cl)c1	11.9
Cc1cc(NC(=O)CN2CCCC(N(C)C)C2)n(C)n1 (stereo not drawn)	-1.647
CCc1nccn1CCNC(=O)[C@H]1CCC[C@@H](O)C1	10.06
CCNc1ncc(C(=O)NCc2ccncc2)cn1	-12.47
NC(=O)COCCNC(=O)c1csc(Br)c1	1.495
CCc1cc(C)c(C(=O)Nc2ccc(C(N)=O)nc2)o1	95.47
Cc1nn(C)c(Cl)c1C(=O)N1CC(n2cccn2)C1	-9.187
CS(=O)(=O)c1ccc(NC(=O)Cn2ccnc2)cc1	-10.15
NCc1coc(-c2cccs2)n1	71.56
COCCCNC(=O)CC1Nc2ccccc2NC1=O (stereo not drawn)	0.327
c1nsnc1-c1nc(C2CCCO2)no1 (stereo not drawn)	62.28
CN(CCO)c1ccc(N)nc1	-107.5
Cc1nc(-c2c[nH]c(C(=O)N3CCCC3)c2)cs1	95.21
CC(C)C(=O)NC1CCN(C(C)C)CC1	13.03
c1c[nH]c(CN2CCN(C3CCOCC3)CC2)n1	5.599
CN(C)C1CCCN(C(=O)c2ncncc2Br)C1 (stereo not drawn)	-16
O=C(c1ccncc1F)N1CCOc2ncccc21	-16.91
CCCc1ncncc1C(=O)N1C[C@H](OCC)[C@@H](O)C1	2.034
CCCC(=O)Nc1cc(C(=O)OC)cc(C(=O)OC)c1	32.25
Cc1noc(C(C)N2CCn3ccnc3C2)n1 (stereo not drawn)	0.6647
CC(C)OCc1nnc(C(C)N)s1 (stereo not drawn)	-10.22
COC(=O)CNS(=O)(=O)c1ccc(C)cc1	10.37
Cc1cccnc1NCCNC(=O)Cc1ccsc1	1.933
Nc1cnnn1-c1ccccc1	-0.4582
COc1ccc(C(=O)CCC(=O)N(C)C)c(Cl)c1	-0.6315
CCNCC(C)NC(=O)OC(C)(C)C (stereo not drawn)	0.2004
CNC(=O)CN1CCC(NC(=O)c2cccs2)CC1	26.31
CC1(C)CN(c2cncc(C(N)=O)n2)C[C@]1(C)O	-9.096
O=S(=O)(c1ccc(Cl)s1)N1CCNCC1	10.9
O=C(NCC1CCS(=O)(=O)C1)N(CCO)C1CC1 (stereo not drawn)	-2.283

Once more, the final 10:

SMILES	percent effect
CC(C)OCc1nnc(C(C)N)s1 (stereo not drawn)	-10.22
COC(=O)CNS(=O)(=O)c1ccc(C)cc1	10.37
Cc1cccnc1NCCNC(=O)Cc1ccsc1	1.933
Nc1cnnn1-c1ccccc1	-0.4582
COc1ccc(C(=O)CCC(=O)N(C)C)c(Cl)c1	-0.6315
CCNCC(C)NC(=O)OC(C)(C)C (stereo not drawn)	0.2004
CNC(=O)CN1CCC(NC(=O)c2cccs2)CC1	26.31
CC1(C)CN(c2cncc(C(N)=O)n2)C[C@]1(C)O	-9.096
O=S(=O)(c1ccc(Cl)s1)N1CCNCC1	10.9
O=C(NCC1CCS(=O)(=O)C1)N(CCO)C1CC1 (stereo not drawn)	-2.283

Source: ChEMBL document CHEMBL3988442, “University of Dundee, Small-Polar-MMV Screening Library” (2021).